# Reference: publication PMC10733359
# Protein sequences, listed by entry. Tags and fused reporters are not part of them.
# UniProt Q6A4J8: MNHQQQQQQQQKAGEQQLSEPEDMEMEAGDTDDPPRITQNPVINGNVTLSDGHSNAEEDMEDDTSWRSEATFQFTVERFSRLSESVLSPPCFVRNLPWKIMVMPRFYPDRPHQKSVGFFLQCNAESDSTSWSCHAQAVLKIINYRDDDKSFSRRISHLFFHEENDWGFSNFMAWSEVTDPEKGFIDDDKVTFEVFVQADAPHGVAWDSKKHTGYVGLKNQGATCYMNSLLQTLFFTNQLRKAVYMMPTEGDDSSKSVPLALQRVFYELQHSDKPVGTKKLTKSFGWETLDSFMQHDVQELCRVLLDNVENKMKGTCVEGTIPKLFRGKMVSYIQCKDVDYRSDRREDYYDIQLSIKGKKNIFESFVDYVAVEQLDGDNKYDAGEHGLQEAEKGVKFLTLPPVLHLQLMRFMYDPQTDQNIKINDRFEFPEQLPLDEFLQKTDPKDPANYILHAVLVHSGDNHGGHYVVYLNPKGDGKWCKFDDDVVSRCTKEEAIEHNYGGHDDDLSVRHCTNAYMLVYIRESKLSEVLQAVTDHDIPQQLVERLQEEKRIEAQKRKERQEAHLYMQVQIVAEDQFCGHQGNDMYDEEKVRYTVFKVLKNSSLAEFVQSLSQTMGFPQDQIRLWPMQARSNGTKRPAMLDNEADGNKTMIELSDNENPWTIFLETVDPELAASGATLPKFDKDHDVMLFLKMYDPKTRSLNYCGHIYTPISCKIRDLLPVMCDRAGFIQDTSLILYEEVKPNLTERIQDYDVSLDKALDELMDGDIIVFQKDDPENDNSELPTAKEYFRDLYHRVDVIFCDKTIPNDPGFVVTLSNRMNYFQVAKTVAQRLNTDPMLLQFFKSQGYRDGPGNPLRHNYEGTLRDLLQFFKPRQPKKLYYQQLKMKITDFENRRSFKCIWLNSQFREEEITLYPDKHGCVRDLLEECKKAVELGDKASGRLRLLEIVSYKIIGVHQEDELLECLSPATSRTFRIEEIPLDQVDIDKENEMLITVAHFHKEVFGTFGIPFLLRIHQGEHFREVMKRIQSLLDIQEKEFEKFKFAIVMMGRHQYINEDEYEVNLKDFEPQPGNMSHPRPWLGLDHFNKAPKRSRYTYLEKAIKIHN
# These are yes or no findings as the source states them, for the method shown. Binding seen in cells or lysates may run through a third protein. Some entries that bind do so weakly or less than the wild type.
# Biological target: de-ubiquitinase USP7, mouse (mouse (endogenous in thalamus)) (UniProt Q6A4J8)
# Experiment: co-IP; USP7 IP from mononucleosome samples of thalamus of control mice, western blot; saline and cocaine treatment
binder,measurement,value
"melanoma-associated antigen D1 (Maged1), mouse (protein, UniProt Q9QYH6 1-775) MAQKPDGGAGLRGFQAEASVEDSALLVQTLMEAIQISEAPPTSQATAAASGPNASPQSSQPPTANEKADTEVSAAAARPKTGFKAQNATTKGPNDYSQARNAKEMPKNQSKAAFKSQNGTPKGPHAASDFSQAAPTGKSAKKSEMAFKGQNSTKAGPGTTYNFPQSPSANEMTNNQPKTAKAWNDTTKVPGADAQTQNVNQAKMADVGTSAGISEADGAAAQTSADGSQTQNVESRTIIRGKRTRKVNNLNVEENNSGDQRRASLASGNWRSAPVPVTTQQNPPGAPPNVVWQTPLAWQNPSGWQNQTARQTPPAARQSPPARQTPSAWQNPVAWQNPVIWPNPVIWQNPVIWPNPIVWPGPIVWPNPMAWQSTPGWQSPPSWQAPPSWQSPQDWQGPPDWQVPPDWSMPPDWSFPSDWPFPPDWIPADWPIPPDWQNLRPSPNLRSSSNSRASQNQGPPQPRDVALLQERANKLVKYLMLKDYTKVPIKRSEMLRDIIREYTDVYPEIIERACFVLEKKFGIQLKEIDKEEHLYILISTPESLAGILGTTKDTPKLGLLLVILGIIFMNGNRATEAVLWEALRKMGLRPGVRHPLLGDLRKLLTYEFVKQKYLDYRRVPNSNPPEYEFLWGLRSYHETSKMKVLRFIAEVQKRDPRDWTAQFMEAADEALDALDAAAAEAEARAEARNRMGIGDEAVSGPWSWDDIEFELLTWDEEGDFGDPWSRIPFTFWARYHQNARSRFPQAFTGPIIGPSGTATANFAANFGAIGFFWVE",binding,binds
